Experimental data published in patent publication US20130259829A1 (The Regents of the University of Colorado, A Body Corporate, priority 2008, published 2013).

experiment: peptide made by a vendor; conditions: whole synthesis

Final HPLC purity, >95%:
FRIMAVLASSGGGANSGFRIMAVLASGGQY (biotinylated), SGGGSKMRMATPLLMQALY (biotinylated), FRIMAVLASANSGFRIMAVLASGGQY, KALVQNDTLLQVKG, SKMRMATPLLMQALY

Plain letter strings leave the end groups untold. One purity is given for all peptides; the source may state it once.
